According to PMC7862700:
The entries are a selection whose mix differs from that of the whole data set. At the low end of the ranking, values are background and their order means little.

What follows are sequences tested against SPI1 (UniProt P17947) (assay: DAPPL (digital affinity profiling via proximity ligation, sequencing)). Details: 10 mM Tris-HCl pH 7.5, 50 mM NaCl, 1 mM DTT, 4% glycerol, room temperature, 30 min; GST-TFs on glutathione beads, 16-mer random dsDNA library, 0.1% …; high values mean tight binding; double strand, one strand shown; scale: fold enrichment (6-mer frequency, TF over GST control).
With GAGAGG the binding signal was 0.396. With GTGCAG the binding signal was 0.778. Sequence CAGGCA has a binding signal of 0.689. In the case of AGGGTA, the binding signal is reported as 0.928. Sequence GGGACA has a binding signal of 0.621. For AGGTAC, the binding signal was 0.915. For AGGCTG, the binding signal was 0.642. Sequence ACAGAG has a binding signal of 0.725. Work on TGGGGG yielded a binding signal of 0.679. TGCAGT showed a binding signal of 0.771. Sequence CAGTCG has a binding signal of 0.156. Work on GTTAGG yielded a binding signal of 0.788. AAGAGA was tested, and the binding signal was 0.782. With GTACCG the binding signal was 0.748. For AGTGAA, the binding signal was 1.26. For GACAGC, the binding signal was 0.748. GCCGGT gave a binding signal of 0.665. With CGCATA the binding signal was 0.73. With GGGAAG the binding signal was 1.51. ACGCAG gave a binding signal of 0.801. CAGGGC gave a binding signal of 0.733. With GGGCCC the binding signal was 0.819. TGAGAA was tested, and the binding signal was 0.748. CCAGTA gave a binding signal of 0.666. With GACGTG the binding signal was 0.33. Work on TCGGGT yielded a binding signal of 0.622. Work on ACCGCG yielded a binding signal of 0.872. TCGCCA showed a binding signal of 0.969. Work on GCCGTG yielded a binding signal of 0.232. For ACAGGG, the binding signal was 0.771. Sequence CGGACT has a binding signal of 0.806. In the case of GACCAT, the binding signal is reported as 0.88. AGTTCG gave a binding signal of 0.752. Work on CGAGAC yielded a binding signal of 0.562. For AGTAAG, the binding signal was 0.814. GGTAGG showed a binding signal of 0.545. With AGTGGG the binding signal was 0.817. CCAGAG showed a binding signal of 0.673. For GATCAG, the binding signal was 0.725.
